Experimental findings from paper PMC7141810, “UBP12 and UBP13 negatively regulate the activity of the ubiquitin-dependent peptidases DA1, DAR1 and DAR2” (eLife, 2020) are described below.

Assay in all cases: affinity purification with mass spectrometry; total protein extracts of eight-day-old Arabidopsis seedlings overexpressing GFP-tagged bait, incubated with anti-GFP beads (uMacs) 1 hr at 4°C, BHB+ buffer; on-bead digestion, MS/MS, label free quantification against control
The target of test [1] is T1, GFP-DAR2 (Arabidopsis thaliana) (UniProt Q0WSN2).
T1 sequence: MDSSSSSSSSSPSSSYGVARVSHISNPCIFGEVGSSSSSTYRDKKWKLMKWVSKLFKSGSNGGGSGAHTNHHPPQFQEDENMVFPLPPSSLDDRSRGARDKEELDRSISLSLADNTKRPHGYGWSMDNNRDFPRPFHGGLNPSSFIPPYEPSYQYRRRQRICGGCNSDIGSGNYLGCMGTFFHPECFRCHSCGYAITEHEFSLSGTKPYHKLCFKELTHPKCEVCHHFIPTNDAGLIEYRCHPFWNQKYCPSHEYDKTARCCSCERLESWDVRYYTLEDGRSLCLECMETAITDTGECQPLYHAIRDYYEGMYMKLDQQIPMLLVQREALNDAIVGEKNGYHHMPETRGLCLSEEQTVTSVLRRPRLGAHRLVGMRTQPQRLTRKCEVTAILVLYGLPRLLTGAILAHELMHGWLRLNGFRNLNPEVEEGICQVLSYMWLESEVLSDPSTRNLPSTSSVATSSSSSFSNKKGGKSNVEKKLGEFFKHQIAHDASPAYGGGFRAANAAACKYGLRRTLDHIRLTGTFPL

Test [2] addresses T2, GFP-DA1 (Arabidopsis thaliana) (UniProt P0C7Q8).
T2 sequence: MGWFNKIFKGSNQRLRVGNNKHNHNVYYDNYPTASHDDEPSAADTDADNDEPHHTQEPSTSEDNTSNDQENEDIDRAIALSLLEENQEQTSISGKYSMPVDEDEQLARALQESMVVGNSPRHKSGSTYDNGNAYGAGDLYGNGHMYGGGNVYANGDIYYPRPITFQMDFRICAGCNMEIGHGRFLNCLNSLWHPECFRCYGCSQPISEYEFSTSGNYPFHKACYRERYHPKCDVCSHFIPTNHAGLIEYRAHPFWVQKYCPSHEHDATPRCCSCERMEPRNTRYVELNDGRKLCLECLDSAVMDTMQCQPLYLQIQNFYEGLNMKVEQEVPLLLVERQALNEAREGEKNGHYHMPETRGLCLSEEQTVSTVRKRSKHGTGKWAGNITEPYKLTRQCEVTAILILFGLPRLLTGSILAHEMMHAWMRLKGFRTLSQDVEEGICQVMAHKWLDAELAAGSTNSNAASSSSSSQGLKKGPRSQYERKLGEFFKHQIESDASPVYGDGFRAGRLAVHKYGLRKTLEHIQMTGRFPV

Test [3] addresses T3, GFP-DAR1 (Arabidopsis thaliana) (UniProt Q8W4F0).
T3 sequence: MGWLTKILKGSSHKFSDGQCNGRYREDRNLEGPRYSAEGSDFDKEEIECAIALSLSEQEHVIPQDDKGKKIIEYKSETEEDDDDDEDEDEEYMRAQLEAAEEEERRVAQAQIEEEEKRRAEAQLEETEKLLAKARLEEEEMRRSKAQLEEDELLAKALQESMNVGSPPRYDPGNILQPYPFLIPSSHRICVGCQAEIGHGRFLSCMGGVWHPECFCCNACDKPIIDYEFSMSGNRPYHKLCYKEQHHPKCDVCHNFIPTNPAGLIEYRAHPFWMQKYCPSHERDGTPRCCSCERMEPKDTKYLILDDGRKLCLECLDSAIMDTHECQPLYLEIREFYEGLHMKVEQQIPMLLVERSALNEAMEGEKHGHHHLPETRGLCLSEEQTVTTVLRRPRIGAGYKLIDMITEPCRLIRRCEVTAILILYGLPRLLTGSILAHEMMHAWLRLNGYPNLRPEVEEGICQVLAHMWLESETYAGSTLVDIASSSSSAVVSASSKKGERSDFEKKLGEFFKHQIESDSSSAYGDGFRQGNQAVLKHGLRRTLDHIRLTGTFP

These are yes or no findings as the source states them, for the method shown. In cells and extracts the contact can be indirect. Here binding means that the protein was enriched with, or labelled near, the bait; the list need not be complete. Sequences can lack the tags named with a protein.

B1: UBIQUITIN-SPECIFIC PROTEASE 12 (UBP12) (enzyme, UniProt Q9FPT1 1-1116)
chain: MTMMTPPPVDQPEDEEMLVPNSDLVDGPAQPMEVTQPETAASTVENQPAEDPPTLKFTWTIPNFSRQNTRKHYSDVFVVGGYKWRILIFPKGNNVDHLSMYLDVSDAASLPYGWSRYAQFSLAVVNQIHTRYTVRKETQHQFNARESDWGFTSFMPLSELYDPSRGYLVNDTVLVEAEVAVRKVLDYWSYDSKKETGFVGLKNQGATCYMNSLLQTLYHIPYFRKAVYHMPTTENDAPTASIPLALQSLFYKLQYNDTSVATKELTKSFGWDTYDSFMQHDVQELNRVLCEKLEDKMKGTVVEGTIQQLFEGHHMNYIECINVDFKSTRKESFYDLQLDVKGCKDVYASFDKYVEVERLEGDNKYHAEGHGLQDAKKGVLFIDFPPVLQLQLKRFEYDFMRDTMVKINDRYEFPLELDLDREDGKYLSPDADRSVRNLYTLHSVLVHSGGVHGGHYYAFIRPTLSDQWYKFDDERVTKEDLKRALEEQYGGEEELPQTNPGFNNNPPFKFTKYSNAYMLVYIRESDKDKIICNVDEKDIAEHLRVRLKKEQEEKEDKRRYKAQAHLYTIIKVARDEDLKEQIGKDIYFDLVDHDKVRSFRIQKQTPFQQFKEEVAKEFGVPVQLQRFWIWAKRQNHTYRPNRPLTPQEELQPVGQIREASNKANTAELKLFLEVEHLDLRPIPPPEKSKEDILLFFKLYDPEKAVLSYAGRLMVKSSSKPMDITGKLNEMVGFAPDEEIELFEEIKFEPCVMCEHLDKKTSFRLCQIEDGDIICFQKPLVNKEIECLYPAVPSFLEYVQNRQLVRFRALEKPKEDEFVLELSKQHTYDDVVEKVAEKLGLDDPSKLRLTSHNCYSQQPKPQPIKYRGVDHLSDMLVHYNQTSDILYYEVLDIPLPELQGLKTLKVAFHHATKEEVVIHNIRLPKQSTVGDVINELKTKVELSHPDAELRLLEVFYHKIYKIFPSTERIENINDQYWTLRAEEIPEEEKNIGPNDRLILVYHFAKETGQNQQVQNFGEPFFLVIHEGETLEEIKNRIQKKLHVSDEDFAKWKFAFMSMGRPEYLQDTDVVYNRFQRRDVYGAFEQYLGLEHADTTPKRAYAANQNRHAYEKPVKIYN
Take B1: the binding result in test [1], in test [2] and in test [3] was “binds” in each case.

B2: UBP13 (enzyme, UniProt Q84WU2 1-1115)
chain: MTMMTPPPLDQQEDEEMLVPNPDLVEGPQPMEVAQTDPAATAVENPPPEDPPSLKFTWTIPMFTRLNTRKHYSDVFVVGGYKWRILIFPKGNNVDHLSMYLDVADAANLPYGWSRYSQFSLAVVNQVNNRYSIRKETQHQFNARESDWGFTSFMPLSELYEPTRGYLVNDTVLIEAEVAVRKVLDYWSYDSKKETGFVGLKNQGATCYMNSLLQTLYHIPYFRKAVYHMPTTENDAPTASIPLALQSLFYKLQYNDTSVATKELTKSFGWDTYDSFMQHDVQELNRVLCEKLEDKMKGTVVEGTIQKLFEGHHMNYIECINVDYKSTRKESFYDLQLDVKGCKDVYASFDKYVEVERLEGDNKYHAEGHDLQDAKKGVLFIDFPPVLQLQLKRFEYDFMRDTMVKINDRYEFPLQLDLDREDGRYLSPDADKSVRNLYTLHSVLVHSGGVHGGHYYAFIRPTLSDQWYKFDDERVTKEDVKRALEEQYGGEEELPQNNPGFNNPPFKFTKYSNAYMLVYIRESDKDKIICNVDEKDIAEHLRVRLKKEQEEKEDKRKYKAQAHLFTTIKVARDDDITEQIGKNIYFDLVDHEKVRSFRIQKQTPFQQFKEEVAKEFGVPVQLQRFWIWAKRQNHTYRPNRPLSPNEELQTVGQIREASNKANNAELKLFLEIERGPDDLPIPPPEKTSEDILLFFKLYDPENAVLRYVGRLMVKSSSKPMDIVGQLNKMAGFAPDEEIELFEEIKFEPCVMCEQIDKKTSFRLCQIEDGDIICYQKPLSIEESEFRYPDVPSFLEYVQNRELVRFRTLEKPKEDEFTMELSKLHTYDDVVERVAEKLGLDDPSKLRLTSHNCYSQQPKPQPIKYRGVDHLSDMLVHYNQTSDILYYEVLDIPLPELQGLKTLKVAFHSATKDEVIIHNIRLPKQSTVGDVINELKTKVELSHQDAELRLLEVFFHKIYKIFPSTERIENINDQYWTLRAEEIPEEEKNIGPNDRLIHVYHFTKEAGQNQQVQNFGEPFFLVIHEGETLEEIKTRIQKKLHVPDEDFAKWKFASFSMGRPDYLLDTDVVYNRFQRRDVYGAWEQYLGLEHIDNAPKRAYAANQNRHAYEKPVKIYN
Consider B2, for which the binding result in test [2] and in test [3] was “binds” throughout.
